Experiment [1] concerns the target T1, SGS3-… PROTEIN 1 (SGIP1, AT3G47020), GAL4 fusion for yeast two-hybrid (Arabidopsis) (UniProt Q9SD71).
T1 sequence: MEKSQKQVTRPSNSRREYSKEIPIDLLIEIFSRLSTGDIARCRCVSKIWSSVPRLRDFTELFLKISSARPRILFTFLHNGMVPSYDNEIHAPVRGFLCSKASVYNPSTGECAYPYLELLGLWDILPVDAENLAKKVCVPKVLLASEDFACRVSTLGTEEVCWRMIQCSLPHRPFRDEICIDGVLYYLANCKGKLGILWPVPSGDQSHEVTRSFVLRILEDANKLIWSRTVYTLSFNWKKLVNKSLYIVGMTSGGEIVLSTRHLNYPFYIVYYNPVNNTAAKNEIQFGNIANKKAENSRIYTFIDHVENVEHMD
Nature of the experiment: two-hybrid; GAL4 activation domain (pDEST-GADT7) and GAL4 DNA binding domain (pDEST-GBKT7) fusions co-transformed into yeast AH109; growth on dropout medium without leucine, histidine and tryptophan with 2 mM 3-aminotriazole.

Experiment [2] concerns the target T2, FLAG-SGIP1 (FLAG-AT3G47020) (Arabidopsis) (UniProt Q9SD71).
T2 sequence: T1 sequence
The experiment can be described thus: co-IP; N. benthamiana leaf lysate (50 mM Tris-HCl pH 7.5, 150 mM NaCl, 1 mM EDTA, 10% glycerol, 1% Triton X-100); anti-FLAG M2 magnetic beads, 4 °C 2 h; blot with anti-SGS3 and anti-FLAG.

For experiment [3], the target named is T3, SGS3-… PROTEIN 1 (SGIP1, AT3G47020), firefly luciferase fragment fusion (Arabidopsis) (UniProt Q9SD71).
T3 sequence: T1 sequence
The experiment can be described thus: split reporter; split firefly luciferase complementation; fusions to N- or C-terminus of luciferase agroinfiltrated with P19 into N. benthamiana leaves, LUC activity imaged 2 days later.

These are yes or no findings as the source states them, for the method shown. For part of these data: Binding seen in cells or lysates may run through a third protein. Some binding calls cover weakened binding; strength is not graded here. Sequences can lack the tags named with a protein.

B1: SUPPRESSOR OF GENE … 3 (SGS3), GAL4 fusion for yeast two-hybrid (protein, UniProt Q9LDX1 1-625)
chain: MSSRAGPMSKEKNVQGGYRPEVEQLVQGLAGTRLASSQDDGGEWEVISKKNKNKPGNTSGKTWVSQNSNPPRAWGGQQQGRGSNVSGRGNNVSGRGNGNGRGIQANISGRGRALSRKYDNNFVAPPPVSRPPLEGGWNWQARGGSAQHTAVQEFPDVEDDVDNASEEENDSDALDDSDDDLASDDYDSDVSQKSHGSRKQNKWFKKFFGSLDSLSIEQINEPQRQWHCPACQNGPGAIDWYNLHPLLAHARTKGARRVKLHRELAEVLEKDLQMRGASVIPCGEIYGQWKGLGEDEKDYEIVWPPMVIIMNTRLDKDDNDKWLGMGNQELLEYFDKYEALRARHSYGPQGHRGMSVLMFESSATGYLEAERLHRELAEMGLDRIAWGQKRSMFSGGVRQLYGFLATKQDLDIFNQHSQGKTRLKFELKSYQEMVVKELRQISEDNQQLNYFKNKLSKQNKHAKVLEESLEIMSEKLRRTAEDNRIVRQRTKMQHEQNREEMDAHDRFFMDSIKQIHERRDAKEENFEMLQQQERAKVVGQQQQNINPSSNDDCRKRAEEVSSFIEFQEKEMEEFVEEREMLIKDQEKKMEDMKKRHHEEIFDLEKEFDEALEQLMYKHGLHNEDD
Take B1: the binding entry in experiment [1] was “binds”.

B2: SUPPRESSOR OF GENE … 3 (SGS3) in N. benthamiana leaves (co-IP) (protein, UniProt Q9LDX1 1-625)
chain: B1 chain
B2: the binding result in experiment [2] is “binds”.

B3: SUPPRESSOR OF GENE … 3 (SGS3), firefly luciferase fragment fusion (protein, UniProt Q9LDX1 1-625)
chain: B1 chain
In the case of B3, the binding entry in experiment [3] is given as “binds”.

For the origin of these results see paper PMC6796840, “An H3K27me3 demethylase-HSFA2 regulatory loop orchestrates transgenerational thermomemory in Arabidopsis”.
